Earlier results, collected in patent US20130028937A1 (LABORATORIOS DEL DR. ESTEVE, S.A., priority 2009, published 2013).

Conditions: cited from earlier work

Cc1ccc(-c2cc(C(F)(F)F)nn2-c2ccc(S(N)(=O)=O)cc2)cc1 [Celecoxib, 4-[5-(4-methylphenyl)-3-(trifluoromethyl)pyrazol-1-yl]benzenesulfonamide]
solubility in water: only slightly soluble
